In article PMC9859826:
No constants are given. Whether binding was seen depends on the method and setting. In cells and extracts the contact can be indirect. A result given as binding can be weak or reduced; the word gives no strength. Tags and fused reporters may be left off the sequences shown.

B1: GST-Hmgb1a (protein, UniProt Q6NX86 1-205)
chain: MGKDPTKPRGKMSSYAYFVQTCREEHKKKHPEATVNFSEFSKKCSERWKTMSAKEKGKFEDMAKLDKARYEREMKNYIPPKGEKKKRFKDPNAPKRPPSAFFIFCSEFRPKVKEETPGLSIGDVAKRLGEMWNKISSEEKQPYEKKAAKLKEKYEKDIAAYRSKGKVGGGAAKAPSKPDKANDEDEDDDEEEDEDDDDEEEEDDE
B2: GST-Sdcbp (protein, UniProt F1QFG9 1-307)
chain: MSLYPSLEDMKVDKFIQAHNTPTASPSKALPLPEPSSDQNEPSTYYDSKAEQTGTSSRLYPELNEFMGLNLSSDALQTFSSSIADQTAGALSVCTSGMSWAAAPITGSDLGVKRAEIRQGVREVVLCKDMDGKIGLRLKAIDNGVFVQLVQANTAAALAGLRFGDQILEINGKSCAGWNSDYAHKVLKNSNPERITLAVRDRPLERTVTLHKDMNGQLGFIFRKGRITSIVKDSSSARNGLLTDHQICEINGQNIIGLKDTQIMDILNSSGGVVTITVMPVVIFEHMMKRMSSSIVKSLMDHSIPEV
B3: GST-Oaz1a (protein, UniProt Q9YI98 1-214)
chain: MVKSNLQTILNSHCFVREKESNIPKMPVIELTRNKPESESSHRCSNPCPGPLWCSDVPLPPLKIPGGRGNDQRDHSLSAKLFYSDAQLLVLEEAPQSNSRVRFLLFERRCSVSKHLVWRGALKGTNLYIEIPTGVLPEGSKDSFSLLLEFAEEKLQVDHVFICFHKSRDDRASLLRTFSFMGFEIVRPGHPLVPTRPDAFFMAYRIERDSDGDE

molecular target: full-length FLAG-Hmx3a (zebrafish); test: co-IP; 5 µg purified GST-fusion incubated 30 min at room temperature with lysate of zebrafish embryos expressing a FLAG-Hmx3a construct in 500 µl 50 mM Tris pH 8.0, 150 mM NaCl, 1 mM EDTA, 1% Triton X-100; anti-FLAG on Protein G Dynabeads overnight at 4 °C, 4 washes; blots for GST and FLAG; uninjected lysate as control; only the binder purified

Binder	binding
B1	binds
B2	no binding (tested: 5 µg GST-fusion in 500 µl)
B3	no binding (tested: 5 µg GST-fusion in 500 µl)
